# Data taken from PubChem BioAssay AID2685 (National Center for Advancing Translational Sciences (NCATS), 2010).
# The other results are listed elsewhere or left out. The main result of the screen is listed elsewhere. These columns were measured beside it and carry no call. The list favours compounds with an active or inconclusive main result. Words in brackets tell the shape of the fitted curve; partial curves, single points and poor fits give uncertain potencies.
# Assay: qHTS Assay for Lipid Storage Modulators in Drosophila S3 Cells;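 as to cell number change: cells counted by Cell Tracker Red CMTPX staining in the red channel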
# Details: BODIPY lipid droplet fluorescence, 18-24 h; for cell number change: measured here: cell count max response, cells fed with added oleic acid
# Summary of the method: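 Drosophila S3 cells loaded with oleic acid (400 uM, as added) and compounds at several concentrations; lipid droplets imaged by 488-nm laser-scanning cytometry, 500–530 nm intensity and object ratio to cell channel. Percent activity normalized to 20 uM Triacsin C.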
# [1] = measured here: lipid fluorescence (Fed channel) AC50, cells fed with added oleic acid
# [2] = measured here: cell number channel AC50, cells fed with added oleic acid
SMILES,cell number change [%],AC50 [1],AC50 [2]
CCOC(=O)Cn1nc(C)c(NC(=O)c2cccc([N+](=O)[O-])c2)c1C,-13.4,"4610 nM [falling, single point]",–
CCc1ccc(NC(=O)NNC(=O)c2cc3ccccc3cc2O)cc1,33.7,–,–
O=C(CCNC(=O)c1ccc([N+](=O)[O-])cc1)Nc1ccc(F)cc1,1.8,–,–
Cc1ccc(S(=O)(=O)NC(C)C(=O)NC(C)c2cccs2)cc1 (centres undefined),-19.8,"13000 nM [rising, partial curve]",–
O=C(Nc1ccc(CN2CCOCC2)cc1)c1cccc(-c2cc3ccccc3oc2=O)c1,4.59,–,–
CCc1cc2ccc(C)cc2nc1SCC(=O)NC1CCCC1,3.85,–,–
CC1Cc2ccccc2N1NC(=O)c1ccc(Cl)c(S(N)(=O)=O)c1 (centres undefined),-20.6,"7310 nM [falling, partial curve, poor fit]",–
COC(=O)c1cnc(Oc2c(Cl)cc(N)cc2Cl)cc1C(F)(F)F,-29.3,"32600 nM [falling, single point]",–
CCOc1ccccc1C1CC(=O)Nc2cc(C)c(C)cc21 (centres undefined),-8.39,"29100 nM [falling, single point]",–
S=c1[nH]nc(-c2ccncc2)n1Cc1ccco1,-4.15,–,–
O=C(Cn1nc(-c2ccc(Cl)cc2)ccc1=O)NCc1ccc2c(c1)OCO2,–,–,"580 nM [rising, single point]"
CCCC(=O)Nc1nnc(Cc2ccccc2)s1,–,–,"731 nM [rising, full curve, poor fit]"
CNC(=O)c1sccc1S(=O)(=O)Cc1c(Cl)cccc1Cl,–,"4.61 nM [rising, full curve, poor fit]",–
COc1cc(/C=N\NC(=O)CNC(=O)c2cccc([N+](=O)[O-])c2)ccc1O,-11.3,–,"6510 nM [falling, single point]"
O=C(C1CC1c1ccccc1)N1CCN(c2cccc(Cl)c2)CC1 (centres undefined),4.88,"920 nM [falling, full curve, poor fit]",–
COc1ccc(-n2nnnc2SCC(=O)NC2CCCC2)cc1OC,-21.1,–,–
CC(C)CCN(C(=O)C1CCCC1)c1c(N)n(Cc2ccccc2)c(=O)[nH]c1=O,4.82,"731 nM [rising, single point]",–
COc1ccccc1C(=O)NC(=O)COC(=O)CNC(=O)c1ccccc1,75,–,"29100 nM [rising, single point]"
Cn1c(SCC(=O)c2ccccc2)nnc1-c1ccccn1,28.7,"20600 nM [rising, single point]",–
COc1ccc(-n2nc3c(c2NC(=O)COc2ccccc2)CS(=O)C3)cc1 (centres undefined),15,"731 nM [rising, partial curve, poor fit]",–
Nc1ccc(-n2ccnc2)cc1,13.2,"29100 nM [rising, single point]",–
COc1ccc(CNc2ccc(S(=O)(=O)N3CCN(C)CC3)cn2)cc1OC,-42.7,"231 nM [falling, full curve]","164 nM [falling, full curve]"

SMILES,cell number change [%],AC50 [1],AC50 [2]
CCN(CC)CCNC(=O)Cn1nc(-c2ccccc2)c2ccccc2c1=O,-20.3,"3660 nM [falling, full curve]","130 nM [falling, full curve, poor fit]"
COCCCNC(=O)CSC1=Nc2ccccc2C2=NC(CC(=O)NCc3ccccc3)C(=O)N12 (centres undefined),-26.6,"29100 nM [falling, single point]",–
COCC(C)n1c(SCC(=O)NCCC2=CCCCC2)nc2ccccc2c1=O (centres undefined),30,"259 nM [falling, partial curve, poor fit]",–
Cc1ccsc1C(=O)Nc1ccc(F)c([N+](=O)[O-])c1,59.4,–,"29100 nM [rising, partial curve, poor fit]"
Cc1cc(C(=O)NCCN2CCOCC2)ccc1[N+](=O)[O-],-7.8,–,–
O=C(c1ccccc1Cl)N1CCC(n2cccc2)CC1,21.3,"231 nM [falling, full curve]","259 nM [falling, full curve]"
COc1ccc(N2C(=O)C3CCCN3C2c2ccc(C)o2)cc1 (centres undefined),25.9,"2060 nM [rising, partial curve, poor fit]",–
Cc1ccc(NC(=O)/C=C/c2cccs2)c([N+](=O)[O-])c1,-1.67,"6510 nM [falling, single point]","6510 nM [falling, single point]"
CCCCCCCCCOC(=O)C(CC(=O)O)N1CCOCC1 (centres undefined),29,"580 nM [falling, single point]",–
CCNCCC(=O)N1c2ccccc2Sc2ccc(C(F)(F)F)cc21,-1.82,–,–
COc1ccc(CNC(=O)C/C(C)=N/NC(=O)c2ccc(OC)cc2OC)cc1,-5.71,"29100 nM [rising, single point]",–
CCOc1ccc(CSC2=NCCN2)cc1Cl,-20.7,–,"3660 nM [falling, partial curve]"
Cc1cccc(Oc2ccc(S(=O)(=O)N3CCCCC3)cc2N)c1,56.6,–,"8200 nM [rising, partial curve]"
CSc1nc(O)c(C(c2cccc([N+](=O)[O-])c2)c2c(O)nc(SC)[nH]c2=O)c(=O)[nH]1,-52,"29100 nM [falling, single point]","25900 nM [falling, partial curve]"
Cc1c(NC(=O)CSc2nnnn2-c2ccc(O)cc2)c(=O)n(-c2ccccc2)n1C,9.93,"2310 nM [falling, partial curve]",–
N#Cc1ccsc1NC(=O)CCS(=O)(=O)c1ccccc1,-0.867,"184 nM [rising, full curve, poor fit]",–
Cc1cccc(Nc2ccccc2)c1,-20.8,–,–
CC(Sc1nc2c(cc1C#N)CCCCC2)C(=O)O (centres undefined),–,"112 nM [rising, full curve]",–
C=C(C)C(=O)OCC(=O)NCc1ccccc1,–,–,"6510 nM [rising, single point]"
CCCC(=O)Nc1ccc(C(=O)/C=C/c2ccc(SC)cc2)cc1,-13.6,–,–
CCCc1cc(=O)[nH]c(SCC(=O)NC2(C#N)CCCCC2)n1,8.21,–,–
Cc1cc(NC(=O)c2c(-c3c(Cl)cccc3Cl)noc2C)n(C)n1,0.925,–,–

SMILES,cell number change [%],AC50 [1],AC50 [2]
CCOc1cccc(-c2nnc3sc(-c4ccco4)nn23)c1,-9.3,"4.61 nM [rising, full curve, poor fit]",–
CC(CNC(=O)c1cc(COc2c(F)cccc2F)on1)c1ccccc1 (centres undefined),-6.36,"18400 nM [falling, single point]",–
Cc1cccc(-c2oc3ccc(-c4ccc5c(c4)OCO5)cc3c2C#Cc2cncn2C)c1,-16.2,"5170 nM [falling, single point]",–
CCCCC(=O)Nc1ccc(NC(=S)NC(=O)CC(C)C)cc1OC,-12.1,"4610 nM [falling, full curve]","2060 nM [falling, single point]"
COc1ccc(N2CCN(C(=O)C3CCCN3S(=O)(=O)c3cccc4nsnc34)CC2)cc1 (centres undefined),–,"651 nM [rising, single point]",–
[N-]=[N+]=NCCN1CCN(Cc2ccccc2)CCC1=O,12.6,"1300 nM [falling, full curve, poor fit]",–
CCOc1ccc(CNc2ccc(N3CCOCC3)c(C(=O)O)c2)cc1,5.18,–,"411 nM [falling, partial curve, poor fit]"
COc1ccc(/C=C2/CCc3ccccc3C2=O)cc1OC,11.2,"1840 nM [rising, full curve]",–
COc1ccc(Nc2oc(-c3ccccc3)nc2C#N)cc1,20.1,"130 nM [rising, single point]","92 nM [rising, full curve, poor fit]"
CCn1cc(Cl)c(C(=O)Nc2nc3ccccc3n2CCN2CCCCC2)n1,3.94,–,–
O=S(=O)(c1cccs1)N1CCN(CC(O)COc2cc(Cl)ccc2Cl)CC1 (centres undefined),-29.2,–,"731 nM [rising, partial curve]"
Cc1c(O[C@@H]2O[C@H](CO)[C@@H](O)[C@H](O)[C@H]2O)ccc2c1oc(=O)c1ccccc12,–,"5800 nM [rising, partial curve, poor fit]",–
O=C1NC(CCc2ccccc2)C(=O)N1Cc1ccc(Br)cc1 (centres undefined),31.4,–,–
COc1ccc2oc(C(=O)Nc3nc4ccccc4[nH]3)c(C)c2c1,-5.91,–,–
CCc1ccc(-c2cn(-c3nc(C)cc(C)n3)c(=N)o2)cc1,10.3,"6510 nM [rising, single point]",–
CN1C(=O)C(C)(C)c2cc(S(=O)(=O)N3CCC(C(=O)NCc4ccccc4Cl)CC3)ccc21,7.49,"29100 nM [falling, single point]",–
COc1ccccc1C(CNC(=O)c1ccc(S(=O)(=O)N2CCCCC2)cc1)N(C)C (centres undefined),6.69,"29.1 nM [falling, full curve, poor fit]",–
Clc1ccc(CSc2nnc(-c3ccccn3)n2Cc2ccco2)c(Cl)c1,-14,"29100 nM [falling, single point]",–
Cc1ccc2nc(C)c(C(=O)N/N=C/c3cccs3)cc2c1,–,"130 nM [rising, full curve, poor fit]","116 nM [rising, full curve, poor fit]"
Cc1cc(N2CCN(c3ccc(C(F)(F)F)cc3[N+](=O)[O-])CC2)c2ccccc2n1,-25.5,–,–
Cn1cccc1C(C#N)c1cccc(F)c1C#N (centres undefined),-1.43,–,"231 nM [falling, full curve, poor fit]"

# Ordered by length of the SMILES (largest number first): some entries from above.
SMILES,cell number change [%],AC50 [1],AC50 [2]
COc1ccc(CNC(=O)C/C(C)=N/NC(=O)c2ccc(OC)cc2OC)cc1,-5.71,"29100 nM [rising, single point]",–
O=S(=O)(c1cccs1)N1CCN(CC(O)COc2cc(Cl)ccc2Cl)CC1 (centres undefined),-29.2,–,"731 nM [rising, partial curve]"
Cc1cc(NC(=O)c2c(-c3c(Cl)cccc3Cl)noc2C)n(C)n1,0.925,–,–
CCCCCCCCCOC(=O)C(CC(=O)O)N1CCOCC1 (centres undefined),29,"580 nM [falling, single point]",–
CCCC(=O)Nc1nnc(Cc2ccccc2)s1,–,–,"731 nM [rising, full curve, poor fit]"
